{"sequences": {"note": "By UniProt entry, the sequences of proteins in these tests, tags left out.", "UniProt Q9H9S0": "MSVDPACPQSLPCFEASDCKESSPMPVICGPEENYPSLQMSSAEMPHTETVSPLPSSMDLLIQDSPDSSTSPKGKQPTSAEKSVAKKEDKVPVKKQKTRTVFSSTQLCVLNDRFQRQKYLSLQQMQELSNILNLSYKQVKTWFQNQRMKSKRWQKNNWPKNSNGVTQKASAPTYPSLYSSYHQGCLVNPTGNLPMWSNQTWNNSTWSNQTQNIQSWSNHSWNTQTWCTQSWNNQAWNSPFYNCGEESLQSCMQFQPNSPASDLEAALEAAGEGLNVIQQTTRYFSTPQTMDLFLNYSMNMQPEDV"}, "source": "paper PMC5661642", "key": {"[1]": {"biological_target": "T1, Myc-USP21 (ubiquitin-specific peptidase 21), wild type (human) (UniProt Q9UK80)", "T1 sequence": "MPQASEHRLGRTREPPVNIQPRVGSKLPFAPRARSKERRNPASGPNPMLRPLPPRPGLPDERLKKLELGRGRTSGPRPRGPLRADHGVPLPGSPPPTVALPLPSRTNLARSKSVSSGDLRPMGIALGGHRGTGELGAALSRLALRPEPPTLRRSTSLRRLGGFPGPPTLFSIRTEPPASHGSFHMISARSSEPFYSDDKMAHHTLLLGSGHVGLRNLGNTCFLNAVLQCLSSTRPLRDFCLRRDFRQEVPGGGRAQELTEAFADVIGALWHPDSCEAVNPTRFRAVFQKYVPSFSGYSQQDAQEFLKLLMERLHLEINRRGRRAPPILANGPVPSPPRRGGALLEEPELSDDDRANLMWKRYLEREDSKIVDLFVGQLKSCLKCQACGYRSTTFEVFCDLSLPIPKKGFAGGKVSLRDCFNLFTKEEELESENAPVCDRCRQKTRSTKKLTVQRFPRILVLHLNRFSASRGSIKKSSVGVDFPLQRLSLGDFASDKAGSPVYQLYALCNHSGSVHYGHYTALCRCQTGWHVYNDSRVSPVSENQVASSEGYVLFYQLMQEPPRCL", "test": "co-IP; HEK293T cells co-transfected with Flag- and Myc-tagged constructs; lysis in HEPES buffer (20 mM HEPES, 50 mM NaCl, 0.5% Triton-X 100, 1 mM NaF); IP with anti-Flag or anti-Myc antibodies, protein A/G-agarose, 4 °C; western blot"}, "GST-USP21 (human)": {"biological_target": "T2, GST-USP21 (human) (UniProt Q9UK80)", "T2 sequence": "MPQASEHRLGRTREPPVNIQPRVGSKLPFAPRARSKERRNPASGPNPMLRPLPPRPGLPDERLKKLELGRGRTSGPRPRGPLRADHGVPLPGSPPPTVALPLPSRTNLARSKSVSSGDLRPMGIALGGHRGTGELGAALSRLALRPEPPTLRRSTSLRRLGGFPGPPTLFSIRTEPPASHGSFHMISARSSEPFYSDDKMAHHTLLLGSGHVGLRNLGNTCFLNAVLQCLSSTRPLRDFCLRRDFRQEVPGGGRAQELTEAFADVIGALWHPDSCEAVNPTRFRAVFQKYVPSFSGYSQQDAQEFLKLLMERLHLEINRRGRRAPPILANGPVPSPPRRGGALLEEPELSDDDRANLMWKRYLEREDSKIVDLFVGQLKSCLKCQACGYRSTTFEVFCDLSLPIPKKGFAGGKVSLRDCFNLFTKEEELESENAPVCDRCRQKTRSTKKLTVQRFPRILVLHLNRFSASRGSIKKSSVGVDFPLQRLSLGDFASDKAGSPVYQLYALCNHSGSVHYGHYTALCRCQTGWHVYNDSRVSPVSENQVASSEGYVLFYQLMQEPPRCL", "test": "pull-down; GST or GST-USP21 from E. coli BL21 immobilized on glutathione-Sepharose 4B beads, incubated with purified His-Nanog for 8–12 h at 4 °C; blotted with anti-His or anti-GST; both purified"}, "[2]": {"biological_target": "T3, endogenous Nanog of mouse ESCs (E14) (mouse (endogenous in E14)) (UniProt Q80Z64)", "T3 sequence": "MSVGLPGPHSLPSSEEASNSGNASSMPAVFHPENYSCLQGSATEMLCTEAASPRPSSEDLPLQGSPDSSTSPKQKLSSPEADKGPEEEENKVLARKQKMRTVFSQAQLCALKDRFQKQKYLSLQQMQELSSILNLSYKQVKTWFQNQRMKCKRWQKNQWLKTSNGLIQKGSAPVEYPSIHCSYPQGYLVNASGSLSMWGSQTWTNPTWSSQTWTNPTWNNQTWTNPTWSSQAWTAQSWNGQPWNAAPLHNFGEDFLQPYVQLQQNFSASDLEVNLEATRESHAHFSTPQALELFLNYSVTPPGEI", "test": "co-IP; endogenous proteins in E14 and NCCIT cell lysates; IP with control IgG, anti-Nanog or USP21 antibodies; western blot"}}, "note": "These are yes or no findings as the source states them, for the method shown. For part of these data: In cells and extracts the contact can be indirect. Some entries that bind do so weakly or less than the wild type. For part of these data: Where a sequence is shown, tags or fusion partners need not be part of it."}
{"molecule": "Flag-Nanog (from UniProt Q9H9S0 1-305)", "values": [{"measurement": "binding", "setting": "[1]", "result": "binds"}]}
{"molecule": "His-Nanog (from UniProt Q9H9S0 1-305)", "values": [{"measurement": "binding", "setting": "GST-USP21 (human)", "result": "binds"}]}
{"molecule": "endogenous USP21 of mouse ESCs (E14) (enzyme, UniProt Q9QZL6 1-566) MPQASEHRLGRTREPPVNVQPRVGAKIPFPPRARSKERRNPVPGPNSMLRPLPPRPGPPDERLKKLELGRGRTSGSRPRGPLRADHGVPLPGSPPPAVALPLPSRTNLARSKSVSSGDLRPMGIALGGHRGAGELGAALSRLALRPEPPTLRRSTSLRRLGGFPGPPTLLSIRTEPPTSHGSFHMISARPSEPFYSDDKMAHHTLLLGSGHVGLRNLGNTCFLNAVLQCLSSTRPLRDFCLRRDFRQEVPGGGRAQELTEAFADVIGALWHPDSCEAVNPTRFRAVFQKYVPSFSGYSQQDAQEFLKLLMERLHLEINRRGRRAPPILASGPVPSPPRRGGGALHEEPELSDDDRANLMWKRYLEREDSKIVDLFVGQLKSCLKCQACGYRSTTFEVFCDLSLPIPKKGFAGGKVSLRDCFSLFTKEEELESENAPVCDRCRQKTRSTKKLTVQRFPRILVLHLNRFSTSRGSIKKSSVGVDFPLQRLSLGDFASDKAGSPVYQLYALCNHSGSVHYGHYTALCRCQTGWHVYNDSRVSPVSENQVASSEGYVLFYQLMQEPLRCL", "values": [{"measurement": "binding", "setting": "[2]", "result": "binds"}]}
